Experimental data as given in the supplement of paper PMC9015667.
Structures can show the parent of a compound that is named as a salt. ± gives the standard deviation of the averaged measurements. Some of the results follow. Many values rest on one well or one pass, so single values are uncertain.

Assays:
Test in all cases: reduction in cell viability relative to untreated/vehicle; higher = more growth inhibition
Settings in all cases: 200 nM; 72 h
[1] = tested on: M229P (parental melanoma line)
[2] = tested on: M229R (matched melanoma line resistant to BRAF inhibitors)
[3] = tested on: M238P (parental melanoma line)
[4] = tested on: M238R (matched melanoma line resistant to BRAF inhibitors)
[5] = tested on: M249P (parental melanoma line)
[6] = tested on: M249R (matched melanoma line resistant to BRAF inhibitors)
[7] = tested on: UACC62P (parental melanoma line)
[8] = tested on: UACC62R (matched melanoma line resistant to BRAF inhibitors)

Row | Structure (SMILES) | reduction in cell viability [1] | reduction in cell viability [2] | reduction in cell viability [3] | reduction in cell viability [4] | reduction in cell viability [5] | reduction in cell viability [6] | reduction in cell viability [7] | reduction in cell viability [8]
1 | C[C@]12CC[C@H]3[C@@H](CC[C@@]45O[C@@H]4C(O)=C(C#N)C[C@]35C)[C@@H]1CC[C@@H]2O [Trilostane] | < 0% | < 0% | < 0% | < 0% | < 0% | < 0% | 1.91% | < 0%
2 | COCC1(CO)C(=O)C2CCN1CC2 (configuration not stated) | < 0% | < 0% | < 0% | < 0% | < 0% | < 0% | < 0% | < 0%
3 | COc1ccc(C(CN(C)C)C2(O)CCCCC2)cc1 (configuration not stated) [Venlafaxine hydrochloride] | < 0% | < 0% | < 0% | < 0% | < 0% | < 0% | < 0% | < 0%
4 | C[N+]1(C)[C@@H]2C[C@@H](OC(=O)[C@H](CO)c3ccccc3)C[C@H]1[C@@H]1O[C@@H]12 [Scopolamine methylbromide] | < 0% | < 0% | < 0% | < 0% | < 0% | 0.66% | 14.4% | < 0%
5 | O=[N+]([O-])c1ncc[nH]1 [Azomycin] | < 0% | < 0% | < 0% | < 0% | < 0% | < 0% | < 0% | < 0%
6 | CC[C@@H](C(N)=O)N1CCCC1=O [Levetiracetam] | < 0% | < 0% | < 0% | < 0% | < 0% | < 0% | 1.09% | < 0%
7 | O=C(O)C(=O)c1cn(Cc2ccccc2)c2ccc(-c3ccc(OC(F)(F)F)cc3)cc12 [Tiplasinin] | < 0% | < 0% | < 0% | < 0% | < 0% | < 0% | 8.07% | < 0%
8 | O=P1(N(CCCl)CCCl)NCCCO1 (configuration not stated) [Cyclophosphamide] | < 0% | < 0% | < 0% | < 0% | 2.27% | < 0% | 9.02% | < 0%
9 | CN[C@H]1CCc2cc(OC)c(OC)c(OC)c2-c2ccc(OC)c(=O)cc21 [Demecolcine] | 24.3% | 39.8% | 43.1% | 34.8% | 52.5% | 47.4% | 37.2% | 75%
10 | COC1=C[C@@H]2[C@@H]3Cc4ccc(OC)c(O)c4[C@]2(CCN3C)CC1=O [Sinomenine] | < 0% | < 0% | < 0% | < 0% | < 0% | < 0% | < 0% | < 0%
11 | CC[C@@]1(O)C(=O)OCc2c1cc1n(c2=O)Cc2cc3ccccc3nc2-1 [Camptothecin] | 55.7% | 87.2% | 83.2% | 50.6% | 64.2% | 81% | 81% | 74.4%
12 | C/C(O)=C(\C#N)C(=O)Nc1cc(Br)ccc1Br | < 0% | < 0% | < 0% | < 0% | < 0% | < 0% | < 0% | < 0%
13 | CCN1C[C@]2(OC(=O)c3ccccc3NC(C)=O)CC[C@H](OC)[C@@]34[C@@H]2C[C@@H]([C@@H]13)[C@@]1(O)C[C@H](OC)[C@H]2C[C@@H]4[C@]1(O)[C@H]2OC [Lappaconitine] | < 0% | < 0% | < 0% | < 0% | < 0% | < 0% | < 0% | < 0%
14 | O=c1cccc2n1C[C@@H]1CNC[C@H]2C1 [Cytisine] | < 0% | < 0% | < 0% | < 0% | < 0% | < 0% | < 0% | < 0%
15 | COc1cc([C@@H]2c3cc4c(cc3[C@@H](O)[C@H]3COC(=O)[C@H]23)OCO4)cc(OC)c1O [4-Demethylepipodophyllotoxin] | 31.8% | 31.3% | 72.5% | 69.7% | 63.3% | 45.2% | 50.5% | 85.6%
16 | Cc1cc2c(C(C)C)c(O)c(O)c(C=O)c2c(O)c1-c1c(C)cc2c(C(C)C)c(O)c(O)c(C=O)c2c1O [(-)-Gossypol] | < 0% | < 0% | < 0% | < 0% | < 0% | < 0% | < 0% | < 0%
17 | CC[C@@H](C(=O)[C@@H](C)[C@@H](O)[C@H](C)[C@@H]1O[C@@H]([C@@H](CC)C(=O)O)CC[C@@H]1C)[C@H]1O[C@]2(C=C[C@@H](O)[C@]3(CC[C@@](C)([C@H]4CC[C@](O)(CC)[C@H](C)O4)O3)O2)[C@H](C)C[C@@H]1C [Salinomycin] | < 0% | < 0% | < 0% | < 0% | < 0% | < 0% | < 0% | < 0%
18 | COc1cc(OC)c(OC)cc1C=O [Asaraldehyde] | < 0% | < 0% | < 0% | < 0% | < 0% | < 0% | < 0% | < 0%
19 | C/C=C(\C)C(=O)N[C@@H](c1ccccc1)[C@@H](O)C(=O)O[C@H]1C[C@@]2(O)[C@@H](OC(=O)c3ccccc3)[C@@H]3[C@]4(OC(C)=O)CO[C@@H]4C[C@H](O)[C@@]3(C)C(=O)[C@H](OC(C)=O)C(=C1C)C2(C)C [Cephalomannine] | 31.9% | 50.2% | 79.6% | 74.5% | 54.2% | 59% | 40.7% | 76.4%
20 | Cn1cc(C2=C(c3cn(C4CCN(Cc5ccccn5)CC4)c4ccccc34)C(=O)NC2=O)c2ccccc21 [Enzastaurin] | < 0% | < 0% | < 0% | < 0% | < 0% | 15.1% | < 0% | < 0%

Another view of some results above.
Row	Structure (SMILES)	reduction in cell viability [1]	reduction in cell viability [2]	reduction in cell viability [3]	reduction in cell viability [4]	reduction in cell viability [5]	reduction in cell viability [6]	reduction in cell viability [7]	reduction in cell viability [8]
3	COc1ccc(C(CN(C)C)C2(O)CCCCC2)cc1 (configuration not stated) [Venlafaxine hydrochloride]	< 0%	< 0%	< 0%	< 0%	< 0%	< 0%	< 0%	< 0%
4	C[N+]1(C)[C@@H]2C[C@@H](OC(=O)[C@H](CO)c3ccccc3)C[C@H]1[C@@H]1O[C@@H]12 [Scopolamine methylbromide]	< 0%	< 0%	< 0%	< 0%	< 0%	0.66%	14.4%	< 0%
5	O=[N+]([O-])c1ncc[nH]1 [Azomycin]	< 0%	< 0%	< 0%	< 0%	< 0%	< 0%	< 0%	< 0%
12	C/C(O)=C(\C#N)C(=O)Nc1cc(Br)ccc1Br	< 0%	< 0%	< 0%	< 0%	< 0%	< 0%	< 0%	< 0%
14	O=c1cccc2n1C[C@@H]1CNC[C@H]2C1 [Cytisine]	< 0%	< 0%	< 0%	< 0%	< 0%	< 0%	< 0%	< 0%
16	Cc1cc2c(C(C)C)c(O)c(O)c(C=O)c2c(O)c1-c1c(C)cc2c(C(C)C)c(O)c(O)c(C=O)c2c1O [(-)-Gossypol]	< 0%	< 0%	< 0%	< 0%	< 0%	< 0%	< 0%	< 0%
20	Cn1cc(C2=C(c3cn(C4CCN(Cc5ccccn5)CC4)c4ccccc34)C(=O)NC2=O)c2ccccc21 [Enzastaurin]	< 0%	< 0%	< 0%	< 0%	< 0%	15.1%	< 0%	< 0%

Continuation:

Row | Structure (SMILES) | reduction in cell viability [1] | reduction in cell viability [2] | reduction in cell viability [3] | reduction in cell viability [4] | reduction in cell viability [5] | reduction in cell viability [6] | reduction in cell viability [7] | reduction in cell viability [8]
21 | C[C@]12CCC(=O)C(O)=C1CC[C@@H]1[C@@H]2CC[C@]2(C)C(=O)CC[C@@H]12 [4-Hydroxyandrostenedione] | < 0% | < 0% | < 0% | < 0% | < 0% | < 0% | < 0% | < 0%
22 | COc1ccc(C(=O)N2CCCC2=O)cc1 [Aniracetam] | < 0% | < 0% | < 0% | < 0% | < 0% | < 0% | < 0% | < 0%
23 | CC(=O)O[C@@]12CO[C@@H]1C[C@H](O)[C@@]1(C)C(=O)[C@H](O)C3=C(C)[C@@H](O)C[C@@](O)([C@@H](OC(=O)c4ccccc4)[C@H]21)C3(C)C [10-Deacetylbaccatin] | < 0% | < 0% | < 0% | < 0% | < 0% | 2.99% | 6.45% | < 0%
24 | C/C=C(/C)C(=O)O[C@H]1C(C)=C2[C@H]([C@@H]1OC(=O)CCCCCCC)[C@@](C)(OC(C)=O)C[C@H](OC(=O)CCC)[C@@]1(O)[C@H]2OC(=O)[C@@]1(C)O [Thapsigargin] | 59.26 ± 0.099% | 66.8 ± 3.5% | 79.84 ± 0.43% | 54.8 ± 1.9% | 22.4 ± 0.69% | 62.2 ± 4.7% | 33.3 ± 11% | 74.5 ± 7.1%
25 | CC[C@@H]1[C@@H](C)O[C@@](O)([C@@H](C)[C@H](O)[C@H](C)[C@H]2OC(=O)/C=C/C=C/[C@H](C)[C@@H]([C@@H](C)[C@@H](O)[C@H](C)[C@@]3(O)C[C@@H](O[C@H]4C[C@H](O)[C@H](O)[C@H](C)O4)[C@H](CC)[C@@H](C)O3)OC(=O)/C=C/C=C/[C@@H]2C)C[C@H]1O[C@H]1C[C@H](O)[C@H](O)[C@H](C)O1 [Azalomycin-B] | 88.6% | 88.5% | 84.1% | 89.3% | 83.8% | 88.9% | 94.7% | 91.3%
26 | CN1[C@@H]2CC(O)C[C@H]1[C@@H]1O[C@@H]12 (some centres not stated) [Scopine] | < 0% | < 0% | < 0% | < 0% | < 0% | < 0% | < 0% | < 0%
27 | Cc1n[nH]c2ccc(-c3cncc(OC[C@@H](N)Cc4c[nH]c5ccccc45)c3)cc12 | 77.6% | 69.4% | 81% | 67.9% | 82.4% | 80.6% | 92.5% | 88.3%
28 | NCC1(CC(=O)O)CCCCC1 [Gabapentin] | < 0% | < 0% | < 0% | < 0% | < 0% | < 0% | 2.4% | < 0%
29 | CN[C@@H]1Cc2cccc3[nH]c(=O)n(c23)C1 [Sumanirole maleate] | < 0% | < 0% | < 0% | < 0% | < 0% | < 0% | 2.87% | < 0%
30 | C[C@]12Cc3c[nH]nc3C[C@@H]1CC[C@@H]1[C@@H]2CC[C@@]2(C)[C@H]1CC[C@]2(C)O [Stanozolol] | < 0% | < 0% | < 0% | < 0% | < 0% | < 0% | < 0% | < 0%
31 | COc1ccc(C(=O)c2c(C)n(CCN3CCOCC3)c3cc(I)ccc23)cc1 | < 0% | 2.01% | < 0% | < 0% | < 0% | < 0% | < 0% | < 0%
32 | C[C@@H]1C[C@@H]([C@H](O)CC2CC(=O)NC(=O)C2)C(=O)[C@@H](C)C1 [cycloheximide] | < 0% | < 0% | < 0% | < 0% | < 0% | < 0% | 3.92% | < 0%
33 | CN1C(=O)CCS(=O)(=O)C1c1ccc(Cl)cc1 (configuration not stated) [Chlormezanone] | < 0% | < 0% | < 0% | < 0% | < 0% | < 0% | 7.33% | < 0%
34 | CCOC(=O)c1c(/C(C#N)=C\N)c2ccc(Cl)c(Cl)c2n1C | < 0% | < 0% | < 0% | < 0% | < 0% | < 0% | < 0% | < 0%
35 | O=C(Oc1ccc([N+](=O)[O-])cc1)N1CCC(C(O)(c2ccc3c(c2)OCO3)c2ccc3c(c2)OCO3)CC1 | < 0% | < 0% | < 0% | < 0% | < 0% | < 0% | < 0% | < 0%
36 | CC(C)(O)C(=O)Nc1ccc([N+](=O)[O-])c(C(F)(F)F)c1 [Hydroxyflutamide] | < 0% | < 0% | < 0% | < 0% | < 0% | < 0% | 1.29% | < 0%
37 | N=C1NC(=O)N2CC12 (configuration not stated) [Imexon] | < 0% | < 0% | < 0% | < 0% | < 0% | 2% | 1.82% | < 0%
38 | O=C1CC[C@@]2(O)[C@H]3Cc4ccc(O)c5c4[C@@]2(CCN3CC2CC2)[C@H]1O5 [Naltrexone hydrochloride] | < 0% | < 0% | < 0% | < 0% | < 0% | 4.24% | < 0% | < 0%
39 | CC(=O)O[C@H]1C[C@@H]2CC[C@@H]3[C@H](CC[C@@]4(C)[C@H]3C[C@H]([N+]3(C)CCCCC3)[C@@H]4OC(C)=O)[C@@]2(C)C[C@@H]1[N+]1(C)CCCCC1 [Pancuronium bromide] | < 0% | < 0% | 11.2% | < 0% | < 0% | < 0% | 0.6% | < 0%
